# Experimental data: PubChem BioAssay AID1259276 (Sanger Institute, 2017)
# Screen: 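Find kinases whose silencing cuts viability alone or combined with BYL719, cetuximab or trametinib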 (primary screen)
# Cell system: human C2BBe1 colorectal cancer cells
# Reagent: siRNA pool against human genes
# Conditions: DMSO vehicle, or one anchor drug: BYL719 at 1 µM, cetuximab at 5 µg/ml, or trametinib at 10 nM; exposure length not stated
# Detection: 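Viability after knock-down relative to non-targeting siRNA controls, averaged across replicates, given as ratio and control-derived robust z-score, with per-drug synergy scores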
# Direction: viability robust z-score, siRNA alone and viability vs control, siRNA alone: higher = more viable cells after knock-down
# Active means: 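a siRNA pool tested without drug is essential if its viability robust z-score falls under -3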
# Calls: active = essential (siRNA alone); inactive = no change (siRNA alone)
# This is one part, drawn at random, of 794 deposited reagents. 24 of all reagents (3%) count as active. 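Calls come only from the siRNA-alone arm; drug synergy scores do not affect them.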 No viability above 1 is reported: the scale is capped. Not all columns of the deposit are shown. Reagent sequences are not shown. Not stated in the record: the amount of reagent, the time to read-out.
gene,"viability robust z-score, siRNA alone","viability vs control, siRNA alone",outcome
ALPK3,0.472,1,inactive
STK33,-1.59,0.87,inactive
NUP98,0.472,1,inactive
KSR1,-2.36,0.822,inactive
MARK2,0.472,1,inactive
STYK1,-3.46,0.752,active
FXN,0.472,1,inactive
PRKCSH,0.472,1,inactive
RAD21,0.472,1,inactive
KRAS,-2.51,0.812,inactive
PDXK,0.472,1,inactive
TRIB1,-0.245,0.955,inactive
MAPK4,0.472,1,inactive
HK1,0.472,1,inactive
CDK6,0.472,1,inactive
RBKS,0.472,1,inactive
PI4K2B,0.471,1,inactive
STK4,0.472,1,inactive
VRK2,0.472,1,inactive
TNIK,0.472,1,inactive
CLK1,-1.73,0.861,inactive
STK32A,0.472,1,inactive
FCSK,0.472,1,inactive
GRK4,0.472,1,inactive
CHEK1,0.472,1,inactive
RPS6KA6,0.472,1,inactive
SIK2,0.472,1,inactive
PRKCB,0.472,1,inactive
MAP3K12,0.472,1,inactive
PFKM,0.286,0.988,inactive
RIPK3,0.472,1,inactive
SKAP1,0.472,1,inactive

Reprinted from the listing for reference:
gene,"viability robust z-score, siRNA alone","viability vs control, siRNA alone",outcome
STK32A,0.472,1,inactive
FCSK,0.472,1,inactive
GRK4,0.472,1,inactive
CHEK1,0.472,1,inactive
RPS6KA6,0.472,1,inactive
SIK2,0.472,1,inactive
PRKCB,0.472,1,inactive
MAP3K12,0.472,1,inactive

More reagents follow.
gene,"viability robust z-score, siRNA alone","viability vs control, siRNA alone",outcome
DGKI,0.472,1,inactive
AK7,-0.709,0.926,inactive
ACVR1B,0.472,1,inactive
CDK12,-1.54,0.873,inactive
UHMK1,0.472,1,inactive
NUCKS1,0.472,1,inactive
RELA,-0.321,0.95,inactive
PDK2,0.472,1,inactive
CAMK2N1,0.472,1,inactive
ATM,0.232,0.985,inactive
MAP3K4,0.472,1,inactive
PAK5,0.472,1,inactive
KIT,0.472,1,inactive
IP6K2,0.472,1,inactive
SCYL1,0.472,1,inactive
FGFR3,0.472,1,inactive
PASK,0.472,1,inactive
DGKD,-0.341,0.949,inactive
